From the supplement of paper PMC12595434, “Development of retinoid nuclear receptor pathway antagonists through targeting aldehyde dehydrogenase 1A3” (iScience, 2025)
The other results are listed elsewhere or left out. This is a noisy data set.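 Many melting curves are irregular; where none melted, Tm was taken as 64 °C.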

Protein sequences, listed by entry. Tags and fused reporters are not part of them. Lines headed by an entry give the natural chain unless they say otherwise; changes in a name come on top.
UniProt O43166: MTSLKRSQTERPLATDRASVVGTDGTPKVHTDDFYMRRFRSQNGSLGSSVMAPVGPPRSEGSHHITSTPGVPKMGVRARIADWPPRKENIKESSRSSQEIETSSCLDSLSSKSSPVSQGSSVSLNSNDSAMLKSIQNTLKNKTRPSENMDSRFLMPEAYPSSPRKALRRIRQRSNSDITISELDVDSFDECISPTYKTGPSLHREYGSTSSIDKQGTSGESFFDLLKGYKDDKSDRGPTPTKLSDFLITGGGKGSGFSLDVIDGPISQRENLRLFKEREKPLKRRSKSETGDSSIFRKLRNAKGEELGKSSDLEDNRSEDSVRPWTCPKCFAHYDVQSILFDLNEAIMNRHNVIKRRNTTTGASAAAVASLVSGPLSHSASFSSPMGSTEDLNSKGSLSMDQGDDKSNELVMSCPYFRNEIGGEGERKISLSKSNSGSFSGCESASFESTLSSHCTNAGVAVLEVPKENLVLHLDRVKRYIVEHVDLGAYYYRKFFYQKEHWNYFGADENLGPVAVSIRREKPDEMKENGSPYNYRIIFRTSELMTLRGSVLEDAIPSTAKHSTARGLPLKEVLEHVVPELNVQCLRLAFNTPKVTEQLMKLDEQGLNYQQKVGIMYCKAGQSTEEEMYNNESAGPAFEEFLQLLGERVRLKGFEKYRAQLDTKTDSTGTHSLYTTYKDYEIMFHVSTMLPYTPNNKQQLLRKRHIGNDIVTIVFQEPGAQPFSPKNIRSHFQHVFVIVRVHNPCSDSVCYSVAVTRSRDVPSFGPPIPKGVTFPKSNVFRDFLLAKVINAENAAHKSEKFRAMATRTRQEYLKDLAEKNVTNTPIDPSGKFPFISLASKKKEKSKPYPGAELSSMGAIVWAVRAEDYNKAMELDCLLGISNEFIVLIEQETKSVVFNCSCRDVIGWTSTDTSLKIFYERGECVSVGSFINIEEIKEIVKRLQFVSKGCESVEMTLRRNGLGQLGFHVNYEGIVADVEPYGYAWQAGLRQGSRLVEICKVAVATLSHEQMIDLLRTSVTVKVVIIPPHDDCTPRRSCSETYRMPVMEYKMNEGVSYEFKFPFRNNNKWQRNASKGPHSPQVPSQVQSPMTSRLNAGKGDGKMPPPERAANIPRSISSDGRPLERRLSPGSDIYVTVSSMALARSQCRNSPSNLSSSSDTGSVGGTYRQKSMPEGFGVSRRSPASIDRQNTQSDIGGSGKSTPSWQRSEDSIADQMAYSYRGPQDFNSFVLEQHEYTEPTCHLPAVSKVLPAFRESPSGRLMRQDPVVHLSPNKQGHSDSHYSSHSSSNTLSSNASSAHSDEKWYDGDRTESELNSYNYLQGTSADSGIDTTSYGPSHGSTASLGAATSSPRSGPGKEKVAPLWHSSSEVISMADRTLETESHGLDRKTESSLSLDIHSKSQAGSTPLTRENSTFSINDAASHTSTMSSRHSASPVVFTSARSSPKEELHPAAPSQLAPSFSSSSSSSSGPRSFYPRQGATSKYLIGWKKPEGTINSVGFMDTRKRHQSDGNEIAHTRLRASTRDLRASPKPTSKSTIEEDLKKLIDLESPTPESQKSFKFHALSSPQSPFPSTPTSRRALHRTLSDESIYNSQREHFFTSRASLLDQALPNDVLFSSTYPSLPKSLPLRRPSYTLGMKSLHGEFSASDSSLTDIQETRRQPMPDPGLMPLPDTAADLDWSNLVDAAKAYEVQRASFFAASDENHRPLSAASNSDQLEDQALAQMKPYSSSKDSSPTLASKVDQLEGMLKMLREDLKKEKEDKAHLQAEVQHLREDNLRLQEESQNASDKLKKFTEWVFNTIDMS
UniProt C4AMC7: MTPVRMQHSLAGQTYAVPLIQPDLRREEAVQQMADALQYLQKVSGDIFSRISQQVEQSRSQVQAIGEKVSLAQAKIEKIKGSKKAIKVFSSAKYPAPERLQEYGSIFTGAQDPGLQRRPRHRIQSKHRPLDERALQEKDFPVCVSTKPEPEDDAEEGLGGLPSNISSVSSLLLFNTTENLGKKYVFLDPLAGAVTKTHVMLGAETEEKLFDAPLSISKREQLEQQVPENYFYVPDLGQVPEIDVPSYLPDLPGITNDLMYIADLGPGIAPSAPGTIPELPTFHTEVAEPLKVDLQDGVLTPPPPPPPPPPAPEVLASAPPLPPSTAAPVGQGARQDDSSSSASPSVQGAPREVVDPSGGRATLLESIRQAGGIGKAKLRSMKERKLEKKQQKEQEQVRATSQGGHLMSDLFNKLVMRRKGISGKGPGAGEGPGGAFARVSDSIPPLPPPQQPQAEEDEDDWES
UniProt O14950, whole entry: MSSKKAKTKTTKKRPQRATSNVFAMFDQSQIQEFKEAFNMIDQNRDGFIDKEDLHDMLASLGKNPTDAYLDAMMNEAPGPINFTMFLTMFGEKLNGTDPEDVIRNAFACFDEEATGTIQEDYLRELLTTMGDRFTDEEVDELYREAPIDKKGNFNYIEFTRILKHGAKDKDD
UniProt O15037: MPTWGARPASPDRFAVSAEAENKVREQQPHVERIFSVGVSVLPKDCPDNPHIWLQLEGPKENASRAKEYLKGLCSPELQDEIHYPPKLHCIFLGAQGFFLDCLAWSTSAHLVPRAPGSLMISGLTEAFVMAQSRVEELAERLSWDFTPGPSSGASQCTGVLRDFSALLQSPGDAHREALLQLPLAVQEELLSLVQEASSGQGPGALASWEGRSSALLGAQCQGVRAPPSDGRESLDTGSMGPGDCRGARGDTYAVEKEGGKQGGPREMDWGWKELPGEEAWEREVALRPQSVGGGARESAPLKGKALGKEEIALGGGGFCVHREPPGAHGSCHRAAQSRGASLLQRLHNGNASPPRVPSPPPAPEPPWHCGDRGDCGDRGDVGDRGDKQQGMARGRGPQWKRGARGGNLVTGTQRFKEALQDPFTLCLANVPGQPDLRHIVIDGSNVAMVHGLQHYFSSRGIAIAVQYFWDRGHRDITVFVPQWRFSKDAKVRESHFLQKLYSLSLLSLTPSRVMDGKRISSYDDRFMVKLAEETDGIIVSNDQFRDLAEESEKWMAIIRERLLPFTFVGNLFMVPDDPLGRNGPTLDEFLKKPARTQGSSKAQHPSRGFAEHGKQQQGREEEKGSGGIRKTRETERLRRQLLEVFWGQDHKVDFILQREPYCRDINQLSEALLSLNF
UniProt O00217, whole entry: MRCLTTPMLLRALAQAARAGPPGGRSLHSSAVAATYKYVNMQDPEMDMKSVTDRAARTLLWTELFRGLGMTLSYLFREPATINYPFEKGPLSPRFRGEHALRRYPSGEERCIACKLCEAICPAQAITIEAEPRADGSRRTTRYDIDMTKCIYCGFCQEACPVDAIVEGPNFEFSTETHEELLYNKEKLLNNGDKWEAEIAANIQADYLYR
UniProt O14578, whole entry: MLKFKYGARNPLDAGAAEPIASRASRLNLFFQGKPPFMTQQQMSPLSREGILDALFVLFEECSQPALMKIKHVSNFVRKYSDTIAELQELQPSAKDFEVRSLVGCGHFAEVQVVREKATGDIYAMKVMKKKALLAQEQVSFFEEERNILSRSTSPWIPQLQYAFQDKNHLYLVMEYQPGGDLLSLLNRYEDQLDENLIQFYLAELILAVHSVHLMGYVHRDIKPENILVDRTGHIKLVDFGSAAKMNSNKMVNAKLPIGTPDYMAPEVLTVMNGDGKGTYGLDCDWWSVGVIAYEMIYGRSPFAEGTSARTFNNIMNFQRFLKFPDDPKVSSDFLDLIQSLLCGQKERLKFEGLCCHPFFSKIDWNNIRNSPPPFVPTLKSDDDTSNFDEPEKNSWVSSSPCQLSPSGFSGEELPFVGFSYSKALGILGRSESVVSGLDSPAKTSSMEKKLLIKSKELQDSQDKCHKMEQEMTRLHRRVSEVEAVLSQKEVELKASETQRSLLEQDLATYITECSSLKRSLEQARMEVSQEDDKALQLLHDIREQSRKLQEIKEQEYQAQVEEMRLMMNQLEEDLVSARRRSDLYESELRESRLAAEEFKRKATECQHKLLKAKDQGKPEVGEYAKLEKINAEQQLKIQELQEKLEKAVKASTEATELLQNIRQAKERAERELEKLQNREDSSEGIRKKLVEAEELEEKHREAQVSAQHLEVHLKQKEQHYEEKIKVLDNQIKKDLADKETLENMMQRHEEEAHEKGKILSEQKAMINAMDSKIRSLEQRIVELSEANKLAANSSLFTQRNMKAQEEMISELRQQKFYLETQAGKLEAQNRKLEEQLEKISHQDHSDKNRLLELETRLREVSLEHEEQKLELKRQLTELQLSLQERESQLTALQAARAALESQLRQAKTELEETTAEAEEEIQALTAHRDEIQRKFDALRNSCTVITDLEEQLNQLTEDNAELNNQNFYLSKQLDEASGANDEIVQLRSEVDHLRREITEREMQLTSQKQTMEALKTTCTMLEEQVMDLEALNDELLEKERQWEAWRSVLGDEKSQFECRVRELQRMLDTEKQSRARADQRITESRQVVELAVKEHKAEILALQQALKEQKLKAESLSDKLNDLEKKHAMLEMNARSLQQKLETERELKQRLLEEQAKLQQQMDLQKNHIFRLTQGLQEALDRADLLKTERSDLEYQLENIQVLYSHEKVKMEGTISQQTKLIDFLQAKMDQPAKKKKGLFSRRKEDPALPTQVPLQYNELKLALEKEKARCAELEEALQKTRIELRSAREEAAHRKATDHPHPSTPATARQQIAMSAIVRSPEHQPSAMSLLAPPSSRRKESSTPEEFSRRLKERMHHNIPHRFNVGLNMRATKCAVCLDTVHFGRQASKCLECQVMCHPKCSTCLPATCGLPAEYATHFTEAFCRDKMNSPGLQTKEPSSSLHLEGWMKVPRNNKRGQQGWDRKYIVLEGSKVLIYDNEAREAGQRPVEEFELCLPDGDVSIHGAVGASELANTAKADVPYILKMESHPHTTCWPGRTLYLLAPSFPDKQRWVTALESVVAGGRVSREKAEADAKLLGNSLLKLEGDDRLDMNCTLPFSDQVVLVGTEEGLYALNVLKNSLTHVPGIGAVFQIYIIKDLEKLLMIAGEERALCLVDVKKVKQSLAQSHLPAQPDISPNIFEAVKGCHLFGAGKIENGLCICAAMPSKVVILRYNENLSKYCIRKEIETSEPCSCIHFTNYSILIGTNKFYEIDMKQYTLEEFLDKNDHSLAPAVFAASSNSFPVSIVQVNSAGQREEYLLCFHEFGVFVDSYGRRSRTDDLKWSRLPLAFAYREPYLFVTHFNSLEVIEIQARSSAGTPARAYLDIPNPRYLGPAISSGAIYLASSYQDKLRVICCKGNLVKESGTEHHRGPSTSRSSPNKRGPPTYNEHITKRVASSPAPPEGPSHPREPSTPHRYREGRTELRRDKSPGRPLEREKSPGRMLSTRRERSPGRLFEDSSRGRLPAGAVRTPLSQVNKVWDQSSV
UniProt O00231, whole entry: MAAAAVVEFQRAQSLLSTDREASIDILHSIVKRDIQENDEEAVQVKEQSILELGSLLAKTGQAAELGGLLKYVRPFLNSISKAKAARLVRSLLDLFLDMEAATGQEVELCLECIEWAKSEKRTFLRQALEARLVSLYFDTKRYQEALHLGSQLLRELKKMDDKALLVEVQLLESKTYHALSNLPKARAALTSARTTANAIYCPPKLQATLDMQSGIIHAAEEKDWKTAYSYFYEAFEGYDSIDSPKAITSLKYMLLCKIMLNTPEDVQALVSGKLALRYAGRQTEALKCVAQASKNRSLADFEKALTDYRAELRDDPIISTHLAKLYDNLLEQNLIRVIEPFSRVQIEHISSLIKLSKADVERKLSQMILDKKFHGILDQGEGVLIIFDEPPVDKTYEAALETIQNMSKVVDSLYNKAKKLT
UniProt O00541, whole entry: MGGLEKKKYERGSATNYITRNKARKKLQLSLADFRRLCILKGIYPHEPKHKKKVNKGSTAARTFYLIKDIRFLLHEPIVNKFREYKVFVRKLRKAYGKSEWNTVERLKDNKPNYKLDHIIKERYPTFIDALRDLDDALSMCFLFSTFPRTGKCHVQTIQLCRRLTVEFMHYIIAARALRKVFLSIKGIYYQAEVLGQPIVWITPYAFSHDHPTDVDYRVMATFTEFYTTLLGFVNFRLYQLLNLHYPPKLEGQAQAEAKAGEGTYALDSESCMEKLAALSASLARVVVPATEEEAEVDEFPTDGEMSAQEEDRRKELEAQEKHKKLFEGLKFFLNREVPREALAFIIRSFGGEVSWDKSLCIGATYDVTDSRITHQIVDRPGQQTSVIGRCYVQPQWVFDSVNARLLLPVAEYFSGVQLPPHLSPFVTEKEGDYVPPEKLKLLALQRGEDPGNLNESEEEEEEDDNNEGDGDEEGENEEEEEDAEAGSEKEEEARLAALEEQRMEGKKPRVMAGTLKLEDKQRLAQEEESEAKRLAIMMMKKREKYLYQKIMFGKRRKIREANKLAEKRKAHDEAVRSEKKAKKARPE
UniProt O15498: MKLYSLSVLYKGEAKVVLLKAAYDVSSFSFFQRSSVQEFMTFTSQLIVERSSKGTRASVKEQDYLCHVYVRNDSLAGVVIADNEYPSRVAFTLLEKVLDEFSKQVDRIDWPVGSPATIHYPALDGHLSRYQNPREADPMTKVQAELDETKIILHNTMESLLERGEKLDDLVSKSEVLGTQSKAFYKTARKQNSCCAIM

Compound: CCc1cnccc1C(=O)Nc1cc2c(cc1F)NC(=O)CC2
Assay: melting temperature shift (DMSO Tm minus MBE1-treated Tm) in cellular thermal proteome profiling; higher = less thermal stabilization by MBE1 (negative = stabilized by MBE1)
Settings: A375

Row | Target | melting temperature shift (MBE1 concentration: 100 nM) [°C] | melting temperature shift (MBE1 concentration: 1 uM) [°C]
1 | AP4M1 (UniProt O00189) | -0.805 | -1.35
2 | IGF2BP3 (UniProt O00425) | -1.09 | -0.467
3 | ARPC1B (UniProt O15143) | -1.1 | -0.704
4 | HAX1 (UniProt O00165) | 0.458 | -1.23
5 | TRIM24 (UniProt O15164) | -0.333 | -0.0641
6 | EEF2K (UniProt O00418) | -0.601 | -0.189
7 | PIK3C2B (UniProt O00750) | -0.885 | 0.0591
8 | UniProt O15213 | -0.537 | 0.824
9 | STX7 (UniProt O15400) | -5.4 | -1.95
10 | INPPL1 (UniProt O15357) | -0.739 | -0.875
11 | UniProt O43294 | -2.74 | -0.425
12 | RTCA (UniProt O00442) | -1.54 | 1.65
13 | UniProt O43166 | 0.507 | 0.904
14 | UniProt O00391 | -2.05 | -0.429
15 | WASL (UniProt O00401) | 0.0122 | 1.77
16 | SLC9A3R1 (UniProt O14745) | -4.67 | -2.33
17 | UniProt O14757 | 0.241 | 0.0977
18 | PGRMC1 (UniProt O00264) | -0.61 | -0.704
19 | UniProt C4AMC7 | -0.162 | -0.543
20 | MANBA (UniProt O00462) | -1.4 | 0.568
21 | KPNA3 (UniProt O00505) | 1.07 | 0.733
22 | UniProt O14950 | -1.38 | 0.159

Row | Target | melting temperature shift (MBE1 concentration: 100 nM) [°C] | melting temperature shift (MBE1 concentration: 1 uM) [°C]
23 | UniProt O15037 | -1.13 | -0.989
24 | UniProt O43306 | 0.391 | -0.953
25 | UniProt O43295 | 0.116 | -0.979
26 | PRMT5 (UniProt O14744) | -0.362 | 0.798
27 | UniProt O15484 | -1.55 | 0.232
28 | CNOT1 (UniProt A5YKK6) | 0.403 | -0.00611
29 | UniProt O15131 | -0.113 | -0.922
30 | UniProt O00515 | -0.657 | 0.0672
31 | NDUFS8 (UniProt O00217) | -0.183 | 0.208
32 | UNC119B (UniProt A6NIH7) | -0.943 | -1.92
33 | LAMA5 (UniProt O15230) | -0.993 | 3.67
34 | ZNF609 (UniProt O15014) | -1.87 | -2.2
35 | AGPS (UniProt O00116) | -0.547 | 0.385
36 | CIT (UniProt O14578) | 0.366 | -0.055
37 | BCL9 (UniProt O00512) | -0.376 | -0.0672
38 | PSMD11 (UniProt O00231) | -1.09 | 0.366
39 | POLR3G (UniProt O15318) | -0.651 | -0.818
40 | TTI1 (UniProt O43156) | -1.21 | -0.516
41 | PES1 (UniProt O00541) | -0.0384 | -0.789
42 | PIR (UniProt O00625) | -1.19 | 0.177
43 | TAX1BP3 (UniProt O14907) | -0.795 | 0.0381
44 | YKT6 (UniProt O15498) | -0.598 | 0.812

Three records drawn at random from the list so far, as already listed:
Row | Target | melting temperature shift (MBE1 concentration: 100 nM) [°C] | melting temperature shift (MBE1 concentration: 1 uM) [°C]
34 | ZNF609 (UniProt O15014) | -1.87 | -2.2
23 | UniProt O15037 | -1.13 | -0.989
36 | CIT (UniProt O14578) | 0.366 | -0.055
